These are yes or no findings as the source states them, for the method shown. Binding seen in cells or lysates may run through a third protein. Some results given as binding are weak or reduced against the parent protein; the word gives no strength.

For two molecules, binding results are on record in publication PMC10393194.

Test [1] concerns the target T1, Nab2 (S. cerevisiae (endogenous in yeast)), P32505.
T1 chain: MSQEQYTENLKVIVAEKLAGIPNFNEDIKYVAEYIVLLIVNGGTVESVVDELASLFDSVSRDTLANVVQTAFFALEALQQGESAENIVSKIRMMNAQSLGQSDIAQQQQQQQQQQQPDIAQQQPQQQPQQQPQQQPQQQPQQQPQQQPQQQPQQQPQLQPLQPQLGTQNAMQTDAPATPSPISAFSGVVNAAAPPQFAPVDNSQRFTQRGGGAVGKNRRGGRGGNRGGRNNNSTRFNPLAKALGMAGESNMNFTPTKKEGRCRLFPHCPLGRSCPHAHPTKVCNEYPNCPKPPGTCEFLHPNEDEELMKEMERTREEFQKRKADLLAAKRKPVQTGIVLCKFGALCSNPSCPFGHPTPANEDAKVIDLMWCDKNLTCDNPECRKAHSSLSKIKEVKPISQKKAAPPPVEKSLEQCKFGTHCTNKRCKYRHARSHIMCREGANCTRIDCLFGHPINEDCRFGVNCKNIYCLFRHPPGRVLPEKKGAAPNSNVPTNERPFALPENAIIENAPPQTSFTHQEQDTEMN
Kind of test: cross-linking; BS^3 cross-linking mass spectrometry (XL-MS) of the diluted native mRNP preparation; LysC and trypsin digestion, 1% FDR. As to conditions: remark: other sources report otherwise.

In test [2] the target is T2, Cbp80 (S. cerevisiae (endogenous in yeast)) (UniProt P34160).
T2 sequence: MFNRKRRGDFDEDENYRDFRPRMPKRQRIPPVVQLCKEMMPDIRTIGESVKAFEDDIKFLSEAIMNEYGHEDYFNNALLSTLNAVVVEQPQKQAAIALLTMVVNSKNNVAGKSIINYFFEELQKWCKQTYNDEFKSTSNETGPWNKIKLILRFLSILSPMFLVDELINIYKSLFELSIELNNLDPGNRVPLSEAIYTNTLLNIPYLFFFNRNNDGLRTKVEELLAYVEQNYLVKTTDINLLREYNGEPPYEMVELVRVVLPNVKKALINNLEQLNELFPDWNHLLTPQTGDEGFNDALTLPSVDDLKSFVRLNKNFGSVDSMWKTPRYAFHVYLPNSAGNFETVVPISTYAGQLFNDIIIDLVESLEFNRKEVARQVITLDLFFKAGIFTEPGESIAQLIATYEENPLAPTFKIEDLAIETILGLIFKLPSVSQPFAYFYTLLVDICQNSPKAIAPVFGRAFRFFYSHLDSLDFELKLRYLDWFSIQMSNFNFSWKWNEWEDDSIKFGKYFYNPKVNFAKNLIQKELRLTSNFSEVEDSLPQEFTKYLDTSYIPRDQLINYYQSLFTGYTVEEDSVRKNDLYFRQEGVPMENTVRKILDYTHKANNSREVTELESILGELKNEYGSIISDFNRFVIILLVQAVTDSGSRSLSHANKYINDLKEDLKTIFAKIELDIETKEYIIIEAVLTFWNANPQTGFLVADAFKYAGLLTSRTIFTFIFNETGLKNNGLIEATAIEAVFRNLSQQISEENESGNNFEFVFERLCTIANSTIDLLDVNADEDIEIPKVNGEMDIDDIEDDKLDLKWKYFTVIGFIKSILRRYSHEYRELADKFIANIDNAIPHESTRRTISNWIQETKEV
Described as above.

B1: Nab2, P32505 1-525 (protein)
chain: MSQEQYTENLKVIVAEKLAGIPNFNEDIKYVAEYIVLLIVNGGTVESVVDELASLFDSVSRDTLANVVQTAFFALEALQQGESAENIVSKIRMMNAQSLGQSDIAQQQQQQQQQQQPDIAQQQPQQQPQQQPQQQPQQQPQQQPQQQPQQQPQQQPQLQPLQPQLGTQNAMQTDAPATPSPISAFSGVVNAAAPPQFAPVDNSQRFTQRGGGAVGKNRRGGRGGNRGGRNNNSTRFNPLAKALGMAGESNMNFTPTKKEGRCRLFPHCPLGRSCPHAHPTKVCNEYPNCPKPPGTCEFLHPNEDEELMKEMERTREEFQKRKADLLAAKRKPVQTGIVLCKFGALCSNPSCPFGHPTPANEDAKVIDLMWCDKNLTCDNPECRKAHSSLSKIKEVKPISQKKAAPPPVEKSLEQCKFGTHCTNKRCKYRHARSHIMCREGANCTRIDCLFGHPINEDCRFGVNCKNIYCLFRHPPGRVLPEKKGAAPNSNVPTNERPFALPENAIIENAPPQTSFTHQEQDTEMN
In the case of B1, in test [1], the binding entry is “binds”.

B2: Cbp20 (protein, UniProt Q08920 1-208)
chain: MSLEEFDEVKYDHSTKRLDTPSRYLLRKARRNPNGLQELRESMKSSTIYVGNLSFYTSEEQIYELFSKCGTIKRIIMGLDRFKFTPCGFCFIIYSCPDEALNALKYLSDTKLDEKTITIDLDPGFEDGRQFGRGKSGGQVSDELRFDFDASRGGFAIPFAERVGVPHSRFDNSSSQSNTNNYIPPPDAMGTFRPGFDEEREDDNYVPQ
With B2, the binding result in test [2] is recorded as “binds”.
